Values quoted from earlier work in patent EP1079826B1, “USE OF INDIGOID BISINDOLE DERIVATIVES FOR THE MANUFACTURE OF A MEDICAMENT TO INHIBIT CYCLIN DEPENDENT KINASES” (CNRS, Centre National de la Recherche Scientifique, priority 1998, dated 1999).

Experiments:
PKG = settings: Table 1, known inhibitors; cited from earlier work
PKC = settings: Table 1, known inhibitors; cited from earlier work

For CC[C@H](CO)Nc1nc(NCc2ccccc2)c2ncn(C(C)C)c2n1 (racemic) [Roscovitine, roscovitine], the IC50 (PKG) is given as > 1000 µM and the IC50 (PKC) is given as > 100 µM.
